Data: the supplement of paper PMC12823440, “Inhibitors supercharge kinase turnover through native proteolytic circuits” (Nature, 2025)
Where a name gives a salt, the structure may show the parent alone. Some of the results follow. Hit calls seldom repeat between salt and free forms of one compound.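 Kinases, fused to nanoluciferase, were expressed in K562 cells; luminescence was measured every 4 h from 2 to 18 h as percent of control (DMSO = 100%, positive control = 0%). A time point is decreased if signal falls significantly (2 sigma). Hits were called by the authors by a rule that is not shown; the count of time points alone does not decide it.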

The chains behind the UniProt entries cited, without tags or fusion partners. Where a name states a change or a piece, a line headed by the entry shows the natural chain unless it says otherwise.
UniProt O96013: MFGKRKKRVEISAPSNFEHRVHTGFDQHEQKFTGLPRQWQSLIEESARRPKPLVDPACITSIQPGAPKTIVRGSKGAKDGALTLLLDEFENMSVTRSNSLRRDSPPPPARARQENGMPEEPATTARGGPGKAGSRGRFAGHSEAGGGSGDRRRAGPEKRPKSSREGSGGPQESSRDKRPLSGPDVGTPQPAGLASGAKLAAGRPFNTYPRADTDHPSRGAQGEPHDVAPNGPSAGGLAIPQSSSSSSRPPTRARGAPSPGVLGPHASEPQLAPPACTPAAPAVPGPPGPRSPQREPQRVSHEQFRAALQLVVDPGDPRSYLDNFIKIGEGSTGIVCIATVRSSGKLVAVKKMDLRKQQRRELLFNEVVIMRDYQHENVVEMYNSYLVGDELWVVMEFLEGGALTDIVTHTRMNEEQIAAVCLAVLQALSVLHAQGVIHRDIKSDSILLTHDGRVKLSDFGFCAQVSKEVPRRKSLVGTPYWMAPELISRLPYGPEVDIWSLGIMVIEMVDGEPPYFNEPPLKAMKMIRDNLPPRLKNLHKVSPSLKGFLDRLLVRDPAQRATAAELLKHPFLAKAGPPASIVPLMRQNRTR
UniProt Q96KB5: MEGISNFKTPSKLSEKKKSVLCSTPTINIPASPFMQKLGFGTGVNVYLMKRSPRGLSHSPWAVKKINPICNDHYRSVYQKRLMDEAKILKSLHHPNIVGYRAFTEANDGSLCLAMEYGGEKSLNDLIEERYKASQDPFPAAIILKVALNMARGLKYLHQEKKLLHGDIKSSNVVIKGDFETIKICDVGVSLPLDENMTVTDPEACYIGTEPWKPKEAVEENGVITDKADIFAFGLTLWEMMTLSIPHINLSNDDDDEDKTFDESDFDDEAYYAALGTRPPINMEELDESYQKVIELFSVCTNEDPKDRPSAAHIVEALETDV
UniProt P09619, whole entry: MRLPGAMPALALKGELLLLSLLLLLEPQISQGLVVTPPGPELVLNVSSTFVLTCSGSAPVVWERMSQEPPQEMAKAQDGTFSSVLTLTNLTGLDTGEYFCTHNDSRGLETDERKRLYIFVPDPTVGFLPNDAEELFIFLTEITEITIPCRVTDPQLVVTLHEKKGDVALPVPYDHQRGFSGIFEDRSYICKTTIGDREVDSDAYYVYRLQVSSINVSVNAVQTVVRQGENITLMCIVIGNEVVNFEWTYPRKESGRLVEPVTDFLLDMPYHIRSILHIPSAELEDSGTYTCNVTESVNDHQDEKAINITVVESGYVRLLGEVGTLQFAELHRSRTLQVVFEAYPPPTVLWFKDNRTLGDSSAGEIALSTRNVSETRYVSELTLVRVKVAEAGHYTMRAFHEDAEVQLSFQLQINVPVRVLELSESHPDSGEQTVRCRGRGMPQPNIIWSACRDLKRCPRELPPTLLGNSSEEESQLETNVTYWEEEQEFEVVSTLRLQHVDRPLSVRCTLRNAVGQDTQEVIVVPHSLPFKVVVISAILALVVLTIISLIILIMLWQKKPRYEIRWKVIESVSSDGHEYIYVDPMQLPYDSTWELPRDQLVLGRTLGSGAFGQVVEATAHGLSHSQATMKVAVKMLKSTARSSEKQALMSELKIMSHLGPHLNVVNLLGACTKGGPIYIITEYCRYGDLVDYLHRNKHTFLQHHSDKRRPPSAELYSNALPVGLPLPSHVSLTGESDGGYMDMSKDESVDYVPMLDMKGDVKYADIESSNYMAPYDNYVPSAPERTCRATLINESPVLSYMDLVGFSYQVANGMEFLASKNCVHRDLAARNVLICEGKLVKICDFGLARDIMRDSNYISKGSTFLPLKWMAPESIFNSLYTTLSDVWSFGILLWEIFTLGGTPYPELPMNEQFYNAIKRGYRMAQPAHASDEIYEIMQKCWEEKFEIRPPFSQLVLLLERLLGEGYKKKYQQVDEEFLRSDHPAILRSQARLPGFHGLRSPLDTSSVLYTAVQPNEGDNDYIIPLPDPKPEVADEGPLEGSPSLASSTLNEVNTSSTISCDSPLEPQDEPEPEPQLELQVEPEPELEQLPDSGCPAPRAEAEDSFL
UniProt Q15118, whole entry, looked up: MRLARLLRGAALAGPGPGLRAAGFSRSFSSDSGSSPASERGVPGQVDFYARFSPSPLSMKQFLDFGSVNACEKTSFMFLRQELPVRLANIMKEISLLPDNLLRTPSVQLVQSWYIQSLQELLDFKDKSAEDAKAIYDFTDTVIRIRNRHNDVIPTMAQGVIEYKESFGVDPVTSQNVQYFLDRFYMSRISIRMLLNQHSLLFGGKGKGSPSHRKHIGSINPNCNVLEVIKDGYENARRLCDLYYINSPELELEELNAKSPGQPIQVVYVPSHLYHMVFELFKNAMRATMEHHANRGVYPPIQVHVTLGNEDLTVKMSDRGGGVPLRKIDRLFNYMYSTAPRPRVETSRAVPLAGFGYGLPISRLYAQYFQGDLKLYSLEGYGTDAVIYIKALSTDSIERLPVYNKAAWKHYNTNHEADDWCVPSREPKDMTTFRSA
UniProt O15530: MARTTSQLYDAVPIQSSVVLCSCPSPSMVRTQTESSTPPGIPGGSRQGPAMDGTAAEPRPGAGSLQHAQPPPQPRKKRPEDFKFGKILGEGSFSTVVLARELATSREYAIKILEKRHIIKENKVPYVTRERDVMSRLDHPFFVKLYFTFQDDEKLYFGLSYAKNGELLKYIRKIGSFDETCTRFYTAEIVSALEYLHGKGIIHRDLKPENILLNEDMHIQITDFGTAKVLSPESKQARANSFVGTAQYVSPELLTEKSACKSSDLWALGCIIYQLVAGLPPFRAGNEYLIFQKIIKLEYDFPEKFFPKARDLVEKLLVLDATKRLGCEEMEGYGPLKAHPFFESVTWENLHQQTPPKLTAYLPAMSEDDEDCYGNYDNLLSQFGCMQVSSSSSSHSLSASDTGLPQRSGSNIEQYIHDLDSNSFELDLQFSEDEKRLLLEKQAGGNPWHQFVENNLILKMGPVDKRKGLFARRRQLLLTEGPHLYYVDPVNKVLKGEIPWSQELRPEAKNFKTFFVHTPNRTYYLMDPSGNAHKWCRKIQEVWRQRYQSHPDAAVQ
UniProt P42356, whole entry, looked up: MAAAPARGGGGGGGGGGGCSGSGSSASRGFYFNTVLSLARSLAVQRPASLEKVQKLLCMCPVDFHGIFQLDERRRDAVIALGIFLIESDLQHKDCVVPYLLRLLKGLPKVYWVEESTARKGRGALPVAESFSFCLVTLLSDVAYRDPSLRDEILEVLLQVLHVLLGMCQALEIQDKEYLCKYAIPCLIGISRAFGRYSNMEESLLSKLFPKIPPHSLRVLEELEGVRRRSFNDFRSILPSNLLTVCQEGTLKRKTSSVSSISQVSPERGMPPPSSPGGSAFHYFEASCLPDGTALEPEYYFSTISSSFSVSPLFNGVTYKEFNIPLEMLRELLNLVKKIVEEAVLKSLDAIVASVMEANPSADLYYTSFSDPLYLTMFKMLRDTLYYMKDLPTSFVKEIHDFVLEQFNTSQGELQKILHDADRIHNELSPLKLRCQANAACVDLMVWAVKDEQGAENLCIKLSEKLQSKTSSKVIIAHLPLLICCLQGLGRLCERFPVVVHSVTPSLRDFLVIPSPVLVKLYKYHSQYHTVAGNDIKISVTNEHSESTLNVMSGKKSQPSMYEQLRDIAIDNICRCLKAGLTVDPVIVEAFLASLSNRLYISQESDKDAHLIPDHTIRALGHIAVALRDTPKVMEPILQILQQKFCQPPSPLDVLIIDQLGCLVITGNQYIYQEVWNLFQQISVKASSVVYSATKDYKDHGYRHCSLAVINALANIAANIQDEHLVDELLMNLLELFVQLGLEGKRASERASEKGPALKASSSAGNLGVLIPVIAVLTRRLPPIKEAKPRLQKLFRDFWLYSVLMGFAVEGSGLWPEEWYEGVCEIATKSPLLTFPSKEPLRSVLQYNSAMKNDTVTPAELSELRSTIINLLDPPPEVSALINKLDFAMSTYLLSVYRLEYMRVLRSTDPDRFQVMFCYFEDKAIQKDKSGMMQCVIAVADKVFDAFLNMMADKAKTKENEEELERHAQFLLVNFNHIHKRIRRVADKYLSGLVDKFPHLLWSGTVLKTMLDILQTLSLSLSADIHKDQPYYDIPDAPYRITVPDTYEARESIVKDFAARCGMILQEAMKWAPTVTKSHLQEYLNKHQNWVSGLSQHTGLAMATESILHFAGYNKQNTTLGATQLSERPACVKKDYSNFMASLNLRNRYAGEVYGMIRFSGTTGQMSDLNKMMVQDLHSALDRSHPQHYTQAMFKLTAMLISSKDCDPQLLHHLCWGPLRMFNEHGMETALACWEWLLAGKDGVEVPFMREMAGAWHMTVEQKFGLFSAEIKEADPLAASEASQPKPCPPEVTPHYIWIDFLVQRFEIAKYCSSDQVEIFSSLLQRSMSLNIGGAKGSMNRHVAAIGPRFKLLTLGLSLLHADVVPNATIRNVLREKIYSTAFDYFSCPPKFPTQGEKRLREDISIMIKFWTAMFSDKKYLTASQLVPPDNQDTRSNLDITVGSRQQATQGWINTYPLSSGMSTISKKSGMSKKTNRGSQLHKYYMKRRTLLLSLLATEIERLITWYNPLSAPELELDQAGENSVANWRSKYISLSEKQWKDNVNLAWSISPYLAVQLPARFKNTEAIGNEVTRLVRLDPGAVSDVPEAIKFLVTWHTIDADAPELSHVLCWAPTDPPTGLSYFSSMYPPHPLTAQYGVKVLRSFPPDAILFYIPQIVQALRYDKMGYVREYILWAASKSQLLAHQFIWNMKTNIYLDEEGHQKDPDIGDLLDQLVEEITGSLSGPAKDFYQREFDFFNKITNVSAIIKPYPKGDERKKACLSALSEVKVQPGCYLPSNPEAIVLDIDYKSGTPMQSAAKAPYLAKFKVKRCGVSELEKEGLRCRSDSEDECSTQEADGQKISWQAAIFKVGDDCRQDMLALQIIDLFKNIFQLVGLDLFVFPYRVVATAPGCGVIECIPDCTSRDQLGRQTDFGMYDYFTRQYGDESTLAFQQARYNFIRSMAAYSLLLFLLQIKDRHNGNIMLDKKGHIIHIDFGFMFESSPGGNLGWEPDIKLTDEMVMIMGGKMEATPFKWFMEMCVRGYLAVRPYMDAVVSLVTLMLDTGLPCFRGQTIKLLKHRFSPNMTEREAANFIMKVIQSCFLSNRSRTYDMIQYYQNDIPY
UniProt Q9UBF8: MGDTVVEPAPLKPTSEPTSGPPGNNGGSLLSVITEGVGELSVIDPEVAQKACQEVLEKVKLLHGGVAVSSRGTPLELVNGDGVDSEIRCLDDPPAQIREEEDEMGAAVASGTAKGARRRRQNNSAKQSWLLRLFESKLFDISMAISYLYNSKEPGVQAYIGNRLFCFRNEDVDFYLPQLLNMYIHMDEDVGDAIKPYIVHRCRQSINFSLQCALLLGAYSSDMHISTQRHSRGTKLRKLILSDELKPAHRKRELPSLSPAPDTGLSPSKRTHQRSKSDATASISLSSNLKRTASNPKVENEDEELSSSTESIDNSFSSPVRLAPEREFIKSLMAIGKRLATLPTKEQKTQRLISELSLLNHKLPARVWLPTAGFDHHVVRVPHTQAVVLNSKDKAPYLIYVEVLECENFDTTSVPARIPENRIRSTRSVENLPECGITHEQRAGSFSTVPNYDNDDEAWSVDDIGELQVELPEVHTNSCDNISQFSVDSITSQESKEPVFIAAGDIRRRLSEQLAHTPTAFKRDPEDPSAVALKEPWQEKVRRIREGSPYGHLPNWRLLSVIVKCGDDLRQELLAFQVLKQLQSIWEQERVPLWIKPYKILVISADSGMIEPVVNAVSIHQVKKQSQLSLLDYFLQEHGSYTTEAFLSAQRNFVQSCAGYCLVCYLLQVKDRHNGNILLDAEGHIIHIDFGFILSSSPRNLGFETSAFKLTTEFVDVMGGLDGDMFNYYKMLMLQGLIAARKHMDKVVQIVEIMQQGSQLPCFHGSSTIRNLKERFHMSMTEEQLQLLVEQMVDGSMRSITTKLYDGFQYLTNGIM
UniProt Q13131: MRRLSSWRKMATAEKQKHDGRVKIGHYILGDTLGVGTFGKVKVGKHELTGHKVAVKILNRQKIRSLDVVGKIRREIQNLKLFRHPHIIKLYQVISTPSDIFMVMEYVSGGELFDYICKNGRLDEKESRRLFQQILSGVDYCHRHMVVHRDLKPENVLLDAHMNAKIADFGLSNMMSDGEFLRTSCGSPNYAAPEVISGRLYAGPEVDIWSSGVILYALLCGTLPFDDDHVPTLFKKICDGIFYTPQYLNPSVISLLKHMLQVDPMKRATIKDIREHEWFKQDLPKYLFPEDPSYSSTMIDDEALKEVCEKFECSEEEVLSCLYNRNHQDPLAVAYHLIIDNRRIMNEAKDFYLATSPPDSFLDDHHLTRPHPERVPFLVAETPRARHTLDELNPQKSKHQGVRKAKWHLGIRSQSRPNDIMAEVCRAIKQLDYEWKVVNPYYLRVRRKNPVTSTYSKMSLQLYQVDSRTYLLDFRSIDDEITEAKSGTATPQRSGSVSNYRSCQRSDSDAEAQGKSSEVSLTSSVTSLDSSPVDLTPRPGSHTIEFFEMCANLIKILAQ

Experiments:
Test in all cases: number of time points (of 5) at which kinase-Nluc abundance scored as decreased, DMSO-normalised (count); higher = more persistent destabilization
Settings in all cases: K562; 2-18 h
NTRK3 = NTRK3 (UniProt Q16288)
PAK4 = PAK4 (UniProt O96013)
PBK = PBK (UniProt Q96KB5)
PDGFRB = PDGFRB (UniProt P09619)
PDK1 = PDK1 (UniProt Q15118)
PDPK1 = PDPK1 (UniProt O15530)
PIK4CA = PIK4CA (UniProt P42356)
PIK4CB = PIK4CB (UniProt Q9UBF8)
PLK1 = PLK1 (UniProt P53350)
PRKAA1 = PRKAA1 (UniProt Q13131)

Row | Compound | number of time points (NTRK3) | number of time points (PAK4) | number of time points (PBK) | number of time points (PDGFRB) | number of time points (PDK1) | number of time points (PDPK1) | number of time points (PIK4CA) | number of time points (PIK4CB) | number of time points (PLK1) | number of time points (PRKAA1)
1 | CC(C)=CC/C=C(\C)[C@H]1CC[C@]2(C)[C@@H]1[C@H](O)C[C@@H]1[C@@]3(C)CC[C@H](O[C@@H]4O[C@H](CO)[C@@H](O)[C@H](O)[C@H]4O[C@@H]4O[C@H](CO)[C@@H](O)[C@H](O)[C@H]4O)C(C)(C)[C@@H]3CC[C@]12C [Ginsenoside Rg5] (10 µM) | 0 | 0 | 0 | 0 | 0 | 0 | 0 | 0 | 0 | 0
2 | Oc1cc(O)cc(/C=C/c2ccc(O)c(O)c2)c1 [Piceatannol] (10 µM) | 0 | 0 | 0 | 0 | 0 | 3 | 2 | 4 | 3 | 3
3 | COc1ccc2c(C(=O)Nc3ccc(NC(=O)c4nn(C5CCN(C(=O)CC(C)(C)C#N)CC5)c5ccc(F)cc45)cc3Cl)cnn2c1 [Src Inhibitor 3] (2.5 µM) | 2 | 0 | 0 | 2 | 0 | 3 | 2 | 2 | 3 | 1
4 | Cn1nc(C(C)(C)C)cc1NC(=O)Nc1ccc(Oc2ccncc2)cc1 (10 µM) | 4 | 0 | 0 | 3 | 0 | 0 | 0 | 1 | 0 | 0
5 | CCCn1cnc2c(NCc3ccccc3)nc(NC(CC)CO)nc21 (centres undefined) [Ca2+ channel agonist 1] (2.5 µM) | 0 | 0 | 0 | 0 | 0 | 0 | 0 | 0 | 0 | 0
6 | COc1cc(CCc2cc(-c3nc4ccc(N5CCN(C)CC5)cc4[nH]3)n[nH]2)cc(OC)c1 (10 µM) | 0 | 0 | 0 | 0 | 0 | 4 | 0 | 0 | 0 | 0
7 | COc1cc2nc(C)nc(N[C@H](C)c3cc(N)cc(C(F)(F)F)c3)c2cc1O[C@H]1CCOC1 (10 µM) | 0 | 0 | 0 | 0 | 0 | 0 | 0 | 0 | 0 | 0
8 | Cc1c[nH]c2nccc(Oc3c(F)cc(Nc4cc(Cl)nc(N)n4)cc3F)c12 (10 µM) | 0 | 1 | 0 | 0 | 0 | 0 | 0 | 0 | 0 | 0
9 | O=c1c(-c2ccc(O)cc2)coc2cc(O)cc(O)c12 [Genistein] (10 µM) | 0 | 0 | 0 | 0 | 0 | 0 | 0 | 0 | 0 | 0
10 | CCOc1cc2ncc(C#N)c(Nc3ccc(OCc4ccccn4)c(Cl)c3)c2cc1NC(=O)/C=C/CN(C)C [Neratinib] (10 µM) | 0 | 0 | 0 | 0 | 0 | 0 | 0 | 0 | 0 | 0
11 | COc1cc(Oc2ccnc3cc(OC)c(OC)cc23)ccc1NC(=O)NC(C)c1nccs1 (centres undefined) (2.5 µM) | 0 | 0 | 0 | 0 | 0 | 0 | 0 | 0 | 0 | 0
12 | CCCCNc1ncc(-c2ccc(CN3CCOCC3)cn2)c(NC2CCC(O)CC2)n1 (centres undefined) (10 µM) | 0 | 0 | 0 | 0 | 0 | 0 | 0 | 0 | 0 | 0
13 | CCN(CC)CCCCNc1ncc2cc(-c3c(Cl)cccc3Cl)c(NC(=O)NC(C)(C)C)nc2n1 (2.5 µM) | 1 | 0 | 0 | 2 | 0 | 0 | 0 | 0 | 0 | 0
14 | Nc1ncnc2c1c(-c1ccc(Oc3ccccc3)cc1)cn2C1CCCC1 (2.5 µM) | 0 | 0 | 0 | 0 | 0 | 0 | 0 | 0 | 0 | 0
15 | CC(C)n1cnc2c(NCc3cccc(C(F)(F)F)c3)ncnc21 [Longdaysin] (10 µM) | 0 | 0 | 0 | 0 | 0 | 0 | 0 | 0 | 0 | 0
16 | C=CC(=O)Nc1ccc2ncnc(Nc3cccc(Br)c3)c2c1 (10 µM) | 0 | 0 | 0 | 0 | 0 | 1 | 0 | 3 | 0 | 1
17 | NC(=O)c1ccc(-c2nc(-c3ccccn3)c(-c3ccc4c(c3)OCO4)[nH]2)cc1 (10 µM) | 0 | 0 | 0 | 0 | 0 | 0 | 0 | 0 | 0 | 0
18 | CN(C)CCOc1ccc(-c2nc(-c3ccncc3)c(-c3ccc4c(c3)CC/C4=N\O)[nH]2)cc1 (10 µM) | 0 | 0 | 0 | 0 | 0 | 0 | 0 | 0 | 0 | 0
19 | CCCCOc1c(C(=O)c2c(F)cc(C)cc2F)c[nH]c2nncc1-2 (10 µM) | 0 | 0 | 0 | 0 | 0 | 0 | 0 | 0 | 0 | 0
20 | CN1CCN(C(=O)c2ccc(-c3ccc4c(C=O)c(O)ccc4c3)s2)CC1 (2.5 µM) | 0 | 0 | 0 | 0 | 0 | 0 | 0 | 0 | 0 | 0
21 | CN1CCN(C2CCN(C(=O)Nc3cc(Oc4ccc(NC(=O)C5(C(=O)Nc6ccc(F)cc6)CC5)c(F)c4)ccn3)CC2)CC1 [Golvatinib] (2.5 µM) | 0 | 0 | 0 | 2 | 0 | 2 | 0 | 0 | 0 | 1
22 | CN1CCN(S(=O)(=O)c2ccc(-c3cnc(N)c(C(=O)Nc4cccnc4)n3)cc2)CC1 (10 µM) | 0 | 0 | 0 | 0 | 0 | 0 | 0 | 0 | 0 | 0
23 | CNc1nc(-c2ccc3c(N)n[nH]c3c2)cc(N2C[C@@H](C(=O)NC3CCCCC3)CC[C@H]2C)n1 (10 µM) | 0 | 0 | 0 | 0 | 0 | 0 | 0 | 5 | 0 | 0

Nothing new here: entries from further up.
Row | Compound | number of time points (NTRK3) | number of time points (PAK4) | number of time points (PBK) | number of time points (PDGFRB) | number of time points (PDK1) | number of time points (PDPK1) | number of time points (PIK4CA) | number of time points (PIK4CB) | number of time points (PLK1) | number of time points (PRKAA1)
10 | CCOc1cc2ncc(C#N)c(Nc3ccc(OCc4ccccn4)c(Cl)c3)c2cc1NC(=O)/C=C/CN(C)C [Neratinib] (10 µM) | 0 | 0 | 0 | 0 | 0 | 0 | 0 | 0 | 0 | 0
11 | COc1cc(Oc2ccnc3cc(OC)c(OC)cc23)ccc1NC(=O)NC(C)c1nccs1 (centres undefined) (2.5 µM) | 0 | 0 | 0 | 0 | 0 | 0 | 0 | 0 | 0 | 0
12 | CCCCNc1ncc(-c2ccc(CN3CCOCC3)cn2)c(NC2CCC(O)CC2)n1 (centres undefined) (10 µM) | 0 | 0 | 0 | 0 | 0 | 0 | 0 | 0 | 0 | 0

Later entries:

Row | Compound | number of time points (NTRK3) | number of time points (PAK4) | number of time points (PBK) | number of time points (PDGFRB) | number of time points (PDK1) | number of time points (PDPK1) | number of time points (PIK4CA) | number of time points (PIK4CB) | number of time points (PLK1) | number of time points (PRKAA1)
24 | CCCCC[C@H](O)CC(=O)CCc1ccc(O)c(OC)c1 [[6]-Gingerol] (10 µM) | 0 | 0 | 0 | 0 | 0 | 0 | 0 | 0 | 0 | 0
25 | O=C1NC(=NCc2cccs2)S/C1=C\c1ccc2ncccc2c1 (10 µM) | 0 | 0 | 0 | 0 | 0 | 0 | 0 | 0 | 0 | 0
26 | c1cc(OCCN2CCCCC2)cc(-c2n[nH]c3ccc(-c4nnc[nH]4)cc23)c1 [CC-401 (hydrochloride)] (10 µM) | 0 | 0 | 0 | 0 | 0 | 1 | 0 | 0 | 0 | 0
27 | CNC(=O)c1ccccc1Nc1nc(Nc2ccc(N3CCOCC3)cc2OC)ncc1Cl (2.5 µM) | 0 | 0 | 0 | 0 | 0 | 0 | 0 | 0 | 0 | 0
28 | COc1cc(C=C(C#N)C(N)=O)cc(CSc2nc3ccccc3s2)c1O (10 µM) | 0 | 0 | 0 | 0 | 0 | 0 | 0 | 0 | 0 | 0
29 | C=CC(=O)N1CC[C@H](n2nc(C#Cc3cc(OC)cc(OC)c3)c3c(N)ncnc32)C1 [Futibatinib] (10 µM) | 0 | 0 | 0 | 0 | 0 | 0 | 0 | 0 | 0 | 0
30 | C=CC(=O)N1CCN(CCCn2c(=O)c(-c3c(Cl)c(OC)cc(OC)c3Cl)cc3cnc(NC)nc32)CC1 (10 µM) | 0 | 0 | 0 | 0 | 0 | 0 | 0 | 0 | 0 | 0
31 | COCc1c(-c2ccc(NC(=O)Nc3cc(C(F)(F)F)ccc3F)c(F)c2)c2c(N)ncnn2c1CN1CCOCC1 (2.5 µM) | 0 | 0 | 0 | 0 | 0 | 0 | 0 | 0 | 0 | 0
32 | Nc1nc(N)c(N=O)c(OCC2CCCCC2)n1 (10 µM) | 0 | 0 | 0 | 0 | 0 | 0 | 0 | 0 | 0 | 0
33 | O=C(NOC[C@H](O)CO)c1ccc(F)c(F)c1Nc1ccc(I)cc1F (2.5 µM) | 0 | 0 | 0 | 0 | 0 | 0 | 0 | 0 | 0 | 0
34 | COc1ccc(Oc2cc(NCCC(F)(F)F)c3ncc(-c4ccc(C(=O)NC5CC5)c(C)c4)n3n2)c(F)c1F (2.5 µM) | 0 | 0 | 0 | 0 | 0 | 0 | 0 | 0 | 0 | 0
35 | O=c1c(O)c(-c2ccc(O)c(O)c2)oc2cc(O)cc(O)c12 [Quercetin (dihydrate)] (10 µM) | 0 | 0 | 0 | 0 | 0 | 2 | 0 | 0 | 0 | 0
36 | COc1cc2ncn(-c3cc(OCc4ccccc4C(F)(F)F)c(C(N)=O)s3)c2cc1OC (10 µM) | 0 | 0 | 0 | 2 | 0 | 0 | 0 | 0 | 0 | 0
37 | COc1cc(OC)c(F)c(COc2cnc(Nc3cnn(CCO)c3)nc2)c1F (2.5 µM) | 0 | 0 | 0 | 1 | 1 | 0 | 0 | 1 | 0 | 0
38 | Cc1c[nH]c2ccccc12 [Skatole] (10 µM) | 0 | 0 | 0 | 0 | 0 | 0 | 0 | 0 | 0 | 0
39 | COc1cc(OC)cc(N(CCNC(C)C)c2ccc3ncc(-c4cnn(C)c4)nc3c2)c1 [Erdafitinib] (2.5 µM) | 0 | 0 | 0 | 0 | 0 | 0 | 0 | 0 | 0 | 0
40 | O=C([O-])c1ccccc1O.[Na+] [Sodium Salicylate] (10 µM) | 0 | 0 | 0 | 0 | 0 | 0 | 0 | 0 | 0 | 0
41 | NS(=O)(=O)c1ccc(Nc2nc(OCC3CCCCC3)c3[nH]cnc3n2)cc1 (10 µM) | 0 | 0 | 0 | 0 | 0 | 0 | 0 | 0 | 0 | 0
42 | CC(C)C(=O)Nc1ncc(-c2cc(C(F)F)nn2-c2c(Cl)cccc2Cl)s1 (10 µM) | 0 | 0 | 0 | 0 | 0 | 0 | 0 | 0 | 0 | 0
43 | CN(C)Cc1ccc(-c2cnn3c(-c4cccc(NC(=O)c5cccc(C(F)(F)F)c5)c4)ccnc23)cc1 (2.5 µM) | 0 | 0 | 0 | 0 | 0 | 0 | 0 | 0 | 0 | 0
44 | CC(C)Oc1cc(Nc2nc(N[C@@H](C)c3ccc(F)cn3)ncc2Cl)n[nH]1 (10 µM) | 0 | 0 | 0 | 0 | 0 | 0 | 0 | 0 | 0 | 0
45 | Cc1ccc(F)c(NC(=O)Nc2ccc(-c3cccc4[nH]nc(N)c34)cc2)c1 [Linifanib] (2.5 µM) | – | 0 | 0 | 0 | 0 | 0 | 0 | 0 | 0 | 0
